Measurements published in US11939583B2, “Method of producing autotrophic organisms with altered photorespiration and improved CO2 fixation” (Max-Planck-Gesellschaft zur Förderung der Wissenschaften …, priority 2018, dated 2024).
At least one structure is not confirmed: it was looked up by name or label, or the drawing left a doubt.

The chains behind the UniProt entries cited, without tags or fusion partners. Where a name states a change or a piece, a line headed by the entry shows the natural chain unless it says otherwise.
UniProt A1B8Z2: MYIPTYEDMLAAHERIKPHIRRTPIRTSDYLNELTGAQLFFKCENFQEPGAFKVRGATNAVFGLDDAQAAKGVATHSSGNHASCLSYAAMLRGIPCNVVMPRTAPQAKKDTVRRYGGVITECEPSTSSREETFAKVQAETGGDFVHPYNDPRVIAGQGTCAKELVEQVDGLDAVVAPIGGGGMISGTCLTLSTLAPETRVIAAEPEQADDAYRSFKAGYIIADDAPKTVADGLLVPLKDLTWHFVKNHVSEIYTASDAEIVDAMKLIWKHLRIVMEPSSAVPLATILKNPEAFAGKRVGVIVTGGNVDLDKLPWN
UniProt A1B8Z0: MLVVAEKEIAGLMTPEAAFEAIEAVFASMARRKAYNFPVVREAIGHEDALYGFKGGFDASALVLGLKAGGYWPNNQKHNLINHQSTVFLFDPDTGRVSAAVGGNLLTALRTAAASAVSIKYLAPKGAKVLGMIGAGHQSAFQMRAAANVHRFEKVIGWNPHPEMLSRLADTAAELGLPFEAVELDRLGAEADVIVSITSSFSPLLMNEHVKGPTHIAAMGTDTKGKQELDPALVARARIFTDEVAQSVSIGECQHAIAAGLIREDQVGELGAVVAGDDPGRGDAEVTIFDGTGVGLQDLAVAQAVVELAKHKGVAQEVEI

What was measured:
Type in all cases: biochemical, Paracoccus denitrificans DSM 413
Settings in all cases: 30° C., pH 7.5
[1] = molecular target: T1, β-hydroxyaspartate dehydratase (BHAD) (Paracoccus denitrificans, UniProt A1B8Z2); test: Enzyme assay, kinetic parameters of BHAD
T1 construct: His-tag (N); made in house; host or cells: E. coli BL21 AI
Protocol: (§1) In all enzyme assays, the oxidation of NADH or NADPH was followed at 340 nm or 360 nm on a Cary 60 UV-Vis photospectrometer (Agilent, Santa Clara, USA) in quartz cuvettes with a path length of 1 mm or 10 mm (Hellma Optik GmbH, Jena, Germany).
The enzyme assay to determine the kinetic parameters of BHAD was performed at 30° C. in a total volume of 300 μl. The reaction mixture contained 100 mM phosphate buffer pH 7.5, 0.1 mM PLP, 0.2 mM NADH, varying amounts of the substrate (2R,35)-β-hydroxyaspartate, and 29 nM BHAD. ISRed was added in excess as coupling enzyme to convert iminosuccinate into L-aspartate. (2R,3S)-β-Hydroxyaspartate was custom-synthesized by NewChem (Newcastle upon Tyne, United Kingdom), and was determined to be >95% pure by NMR analysis.

[2] = molecular target: T2, iminosuccinate reductase (ISRed) (Paracoccus denitrificans, UniProt A1B8Z0); test: Enzyme assay, apparent kinetic parameters of ISRed
T2 construct: His-tag (N); made in house; host or cells: E. coli BL21 AI
Protocol: as §1
The enzyme assay to determine the apparent kinetic parameters of ISRed was performed at 30° C. in a total volume of 250 μL. The reaction mixture contained 100 mM potassium phosphate buffer pH 7.5, 0.2 mM NADH, 0.1 mM PLP, varying amounts of (2R,3S)-β-hydroxyaspartate, and appropriate amounts of the enzymes BHAD and ISRed. Kinetics for iminosuccinate were measured with 15 nM ISRed, and appropriate amounts of (2R,3S)-β-hydroxyaspartate and BHAD to generate the desired concentrations of iminosuccinate at the onset of the reaction. Kinetics for NADH and NADPH were measured with 2 mM (2R,3S)-β-hydroxyaspartate, 214 nM BHAD, 28 nM ISRed, and varying amounts of the respective cofactor.

[3] = molecular target: T3, aspartate-glyoxylate aminotransferase (AGAT) (Paracoccus denitrificans, UniProt A1B8Z3); test: Enzyme assay, kinetic parameters of AGAT
T3 construct: His-tag (N); made in house; host or cells: E. coli BL21 AI
T3 sequence (A1B8Z3 1-396): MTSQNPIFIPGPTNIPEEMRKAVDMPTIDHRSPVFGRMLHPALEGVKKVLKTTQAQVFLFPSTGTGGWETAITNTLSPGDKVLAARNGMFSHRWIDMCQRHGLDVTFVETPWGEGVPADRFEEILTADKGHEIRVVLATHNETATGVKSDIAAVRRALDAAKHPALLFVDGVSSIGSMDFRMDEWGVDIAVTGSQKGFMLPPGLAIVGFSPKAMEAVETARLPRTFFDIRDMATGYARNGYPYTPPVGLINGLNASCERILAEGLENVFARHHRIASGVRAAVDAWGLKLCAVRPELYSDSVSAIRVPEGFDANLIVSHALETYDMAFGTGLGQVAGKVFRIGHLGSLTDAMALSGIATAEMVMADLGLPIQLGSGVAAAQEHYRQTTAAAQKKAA
Protocol: as §1
The enzyme assay to determine the kinetic parameters of AGAT with glyoxylate and L-aspartate as substrates was performed at 30° C. in a total volume of 300 μl. The reaction mixture contained 100 mM potassium phosphate buffer pH 7.5, 0.1 mM PLP, 0.2 mM NADH, varying amounts of the respective substrates, and 32 nM AGAT. Mdh was added in excess as coupling enzyme to convert oxaloacetate into malate. Kinetics for glyoxylate were measured with 20 mM L-aspartate; kinetics for L-aspartate were measured with 5 mM glyoxylate. To determine the kinetic parameters with oxaloacetate and glycine as substrates, the same assay mixture was used and GhrA was added in excess as coupling enzyme to convert glyoxylate into glycolate. […] To determine the kinetic parameters with L-serine or L-glutamate and glyoxylate as substrates, the same assay mixture was used and BHAD, BHAA, and Mdh were added in excess as coupling enzymes. Kinetics for L-serine and L-glutamate were measured with 5 mM glyoxylate.

SMILES: N[C@@H](C(=O)O)[C@H](O)C(=O)O [(2R,3S)-β-hydroxyaspartate]
- app. kcat/KM [1]: 175000 M⁻¹ s⁻¹

SMILES: N=C(CC(=O)O)C(=O)O [Iminosuccinate]
- app. kcat/KM [2]: 2.29e+06 M⁻¹ s⁻¹

SMILES: N[C@@H](CCC(=O)O)C(=O)O [L-Glutamate]
- app. kcat/KM [3]: 244 M⁻¹ s⁻¹
